PubChem BioAssay AID1259284 – Sanger Institute, 2017
Test: 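Kinase genes needed for growth or acting with cancer drugs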 (primary screen). System: SW48 human colorectal cancer cells. Reagents: siRNA pool against human genes. Challenge: anchor drug BYL719 at 1 µM, cetuximab at 5 µg/ml or trametinib at 10 nM, or DMSO vehicle alone. Detection: 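Viability scaled to non-targeting control pool, robust z-score from controls, and synergy scores for each drug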. Scale: robust z-score, no drug: higher = more cells survive knock-down; viability, no drug: higher = more viable cells; synergy with BYL719 and synergy with trametinib and synergy with cetuximab: higher = stronger combined killing with drug. Call rule: 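Called essential when the robust z-score of viability without drug falls below -3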. Meaning of the calls: active = essential without drug; inactive = no change without drug.
In all, the deposit lists 794 reagents; this is an unselected part. 16 of all reagents (2%) were called active. 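Calls concern knock-down without drug only; drug synergy was judged apart, with scores above 0.15 taken as synergy.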 No viability above 1 is reported: the scale is capped. Not given: the amount of reagent, the time to read-out.

gene | robust z-score, no drug | viability, no drug (fraction of control) | synergy with BYL719 | synergy with trametinib | synergy with cetuximab | Outcome
ABL1 (ABL proto-oncogene 1, non-receptor tyrosine kinase) | -1.13 | 0.866 | -0.378 | -0.238 | -0.277 | inactive
DIS3 (DIS3 exosome endoribonuclease and 3'-5' exoribonuclease) | 0.426 | 1 | -0.196 | -0.159 | -0.165 | inactive
CDKN2D (cyclin dependent kinase inhibitor 2D) | -0.386 | 0.93 | 0.026 | 0.0574 | 0.0126 | inactive
DYRK1A | 0.426 | 1 | -0.0226 | -0.0267 | 0.0382 | inactive
RUNX1 (RUNX family transcription factor 1) | 0.426 | 1 | -0.0364 | 0.0993 | -0.165 | inactive
GSK3B (glycogen synthase kinase 3 beta) | 0.426 | 1 | -0.241 | -0.218 | -0.165 | inactive
SHPK (sedoheptulokinase) | 0.426 | 1 | 0.0272 | -0.116 | -0.0964 | inactive
FN3K (fructosamine 3 kinase) | 0.426 | 1 | -0.158 | 0.112 | 0.0844 | inactive
PDK1 (pyruvate dehydrogenase kinase 1) | 0.426 | 1 | -0.0831 | 0.00926 | -0.0981 | inactive
ULK1 (unc-51 like autophagy activating kinase 1) | 0.426 | 1 | -0.145 | -0.156 | -0.104 | inactive
LYN (LYN proto-oncogene, Src family tyrosine kinase) | 0.426 | 1 | -0.289 | -0.396 | -0.165 | inactive
CAMK2D (calcium/calmodulin dependent protein kinase II delta) | 0.426 | 1 | -0.272 | -0.148 | -0.111 | inactive
CDK10 (cyclin dependent kinase 10) | 0.426 | 1 | -0.225 | -0.146 | -0.0768 | inactive
PKIB (cAMP-dependent protein kinase inhibitor beta) | -0.115 | 0.954 | -0.212 | -0.172 | -0.204 | inactive
CDK9 (cyclin dependent kinase 9) | 0.426 | 1 | -0.181 | -0.226 | -0.165 | inactive
CDK1 (cyclin dependent kinase 1) | 0.426 | 1 | -0.112 | -0.176 | -0.0256 | inactive
CEP290 (centrosomal protein 290) | 0.426 | 1 | -0.367 | -0.162 | -0.165 | inactive
TAB1 (TGF-beta activated kinase 1 (MAP3K7) binding protein 1) | 0.426 | 1 | -0.151 | -0.109 | -0.0795 | inactive
FXR1 (FMR1 autosomal homolog 1) | 0.426 | 1 | -0.242 | -0.174 | -0.0694 | inactive
JAK1 (Janus kinase 1) | 0.426 | 1 | -0.231 | -0.251 | -0.0676 | inactive
